This assay deals with T1, Hemagglutinin (HA)-tagged Necdin (HA-Necdin) (UniProt P25233).
T1 sequence: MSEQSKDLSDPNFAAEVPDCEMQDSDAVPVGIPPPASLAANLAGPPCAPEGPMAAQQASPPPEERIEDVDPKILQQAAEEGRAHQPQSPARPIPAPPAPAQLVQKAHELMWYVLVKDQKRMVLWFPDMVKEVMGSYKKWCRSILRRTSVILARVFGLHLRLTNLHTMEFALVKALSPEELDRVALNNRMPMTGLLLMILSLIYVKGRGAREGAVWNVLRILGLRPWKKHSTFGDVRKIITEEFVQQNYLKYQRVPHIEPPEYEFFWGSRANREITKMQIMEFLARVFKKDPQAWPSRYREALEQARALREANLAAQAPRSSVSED
The assay is described as follows: co-IP; lysates of 293T cells co-expressing FLAG-Gα constructs and HA-Necdin; precipitated with anti-Necdin antibodies; blots with anti-FLAG and anti-Necdin.

Results are given in words; binding and its absence hold for the method and conditions named. Binding seen in cells or lysates may run through a third protein. Where a sequence is shown, tags or fusion partners need not be part of it.

For FLAG-Gαi, the binding result is on record as “no binding”.

Source of the values: PMC4227020.
